From the supplement of paper PMC12889115
Some of the results follow. These are raw signals, not scaled to a control.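 In the initial screen, polymyxin B was used at a concentration that permeabilizes Salmonella's outer membrane but not its inner membrane. Maximum growth was set by DMSO wells with or without polymyxin B. Since plates varied, data were ranked per plate, and compounds giving the lowest OD600 advanced as hits.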

System: Salmonella enterica serovar Typhimurium SL1344
Experiment: bacterial growth OD600 after 18 h with compound and polymyxin B; higher = more bacterial growth (less inhibition)
Conditions: 50 µM, Mueller-Hinton broth

Structure (SMILES)	bacterial growth OD600 (polymyxin B 0.75 µg/mL)	bacterial growth OD600 (polymyxin B 1 µg/mL)
O=C(NCC1(c2ccccc2)CCOCC1)C1CC12CCN(Cc1ccnc3ccccc13)CC2 (stereo unspecified)	0.815	–
CCNC(=O)c1sc2ncnc(NCCCOC)c2c1C	0.84	–
CN(C)S(=O)(=O)N1CCC2(CCCN(Cc3ccc(F)c(F)c3)C2=O)C1 (stereo unspecified)	–	1.14
O=C(NCCc1cccc(Cl)c1)C1CC(Cc2ccc3c(c2)OCO3)=NO1 (stereo unspecified)	0.006	–
CCCS(=O)(=O)N1CCCC(CNC(=O)c2ccccc2Cl)C1 (stereo unspecified)	0.825	–
CC(C)CCCC1CN(C(=O)CCc2ccc3c(c2)OCO3)CCO1 (stereo unspecified)	0.183	–
COc1cccc(CC(C2CCN(C(=O)/C=C/c3ccccc3F)CC2)N(C)C(=O)CC(C)C)c1 (stereo unspecified)	-0.001	–
O=C(CCC1CCN(C(=O)c2ccc3c(c2)OCCO3)CC1)NCc1cccnc1	–	0.905
Cc1ccsc1C(=O)N(C)C1CCCN(CCc2ccccc2)C1 (stereo unspecified)	0.815	–
Cc1cccc(CN2CCCC3(CCN(c4ccccn4)C3)C2=O)c1 (stereo unspecified)	–	0.901
Cc1nonc1C1CCCN1C(=O)C1(N2CCCCC2)Cc2ccccc2C1 (stereo unspecified)	0.014	–
Cc1ccc2c(c1)CN(Cc1ccccc1O)CC(c1ccsc1)O2 (stereo unspecified)	0.534	–
COc1cccc(-c2nn(-c3ccccc3)cc2CN(C)Cc2nonc2C)c1	–	0.135
COCCn1c(-c2ccccn2)nc2cc(NC(C)=O)cc(C(=O)NCCc3ccc(F)cc3)c21	1.01	–
COCC1CCN(c2ccc(-c3nc(Cc4ccccc4)no3)cn2)CC1	0.004	–
COCCN(C)C(=O)c1cccc(-n2cc(NC(=O)Cc3cccc(C)c3)cn2)c1	0.924	–

As a short view, eight of the compounds above.
Structure (SMILES)	bacterial growth OD600 (polymyxin B 0.75 µg/mL)	bacterial growth OD600 (polymyxin B 1 µg/mL)
CN(C)S(=O)(=O)N1CCC2(CCCN(Cc3ccc(F)c(F)c3)C2=O)C1 (stereo unspecified)	–	1.14
O=C(NCCc1cccc(Cl)c1)C1CC(Cc2ccc3c(c2)OCO3)=NO1 (stereo unspecified)	0.006	–
CCCS(=O)(=O)N1CCCC(CNC(=O)c2ccccc2Cl)C1 (stereo unspecified)	0.825	–
CC(C)CCCC1CN(C(=O)CCc2ccc3c(c2)OCO3)CCO1 (stereo unspecified)	0.183	–
COc1cccc(CC(C2CCN(C(=O)/C=C/c3ccccc3F)CC2)N(C)C(=O)CC(C)C)c1 (stereo unspecified)	-0.001	–
O=C(CCC1CCN(C(=O)c2ccc3c(c2)OCCO3)CC1)NCc1cccnc1	–	0.905
Cc1ccsc1C(=O)N(C)C1CCCN(CCc2ccccc2)C1 (stereo unspecified)	0.815	–
Cc1cccc(CN2CCCC3(CCN(c4ccccn4)C3)C2=O)c1 (stereo unspecified)	–	0.901

Next entries.

Structure (SMILES)	bacterial growth OD600 (polymyxin B 0.75 µg/mL)	bacterial growth OD600 (polymyxin B 1 µg/mL)
CC(=O)c1cccc(CN2CCC(C(=O)Nc3cccc(-c4nnc(C)s4)c3)CC2)c1	0.728	–
CCCN1CCC(C(=O)Nc2ccc(-c3cccc(C)c3)cc2)CC1	–	0.451
CCN(C)C(=O)C1CCCN(C2CCN(c3nc4ccccc4o3)CC2)C1 (stereo unspecified)	0.816	–
CCC(=O)N[C@@H]1c2ccccc2C2(CCN(C(=O)c3cccc(C)c3)CC2)[C@H]1OCc1cccnc1	0.805	–
COc1cccc(CCC(=O)N2CCCC(c3nc(-c4cccnc4)ncc3-c3ccccc3F)C2)c1 (stereo unspecified)	0.054	–
O=C(NCC1Cc2cccc(-c3ncccn3)c2O1)c1ccccn1 (stereo unspecified)	0.842	–
O=C(/C=C/c1ccccc1)N1CCC(C2(c3ccccn3)NC(=O)N(CC3CCCO3)C2=O)CC1 (stereo unspecified)	0.781	–
Cc1cccc(-c2ccccc2C(=O)N2CC[C@@H](N3CCN(C)CC3)[C@H](O)C2)c1	–	1
COc1ccc(OC)c(NC(=O)N(C)CC2CCCN(CCc3ccccc3OC)C2)c1 (stereo unspecified)	–	1.12
Cc1ccc(-c2n[nH]cc2CN(Cc2nccn2C)C(C)C)cc1C	–	1.34
COc1cccc(-c2nc3ccc(C(=O)N(C)Cc4ccc(C)o4)cc3o2)c1	–	0.707
CC(CCn1cccn1)Nc1ccc(-c2nc(C3CC3)no2)cn1 (stereo unspecified)	–	1.03
Cc1cccc(NC(=O)CCC2CCN(S(=O)(=O)N(C)C)CC2)c1	–	0.91
CCOC(=O)C1(Cc2ccc(Cl)cc2)CCN(Cc2cc(C(C)C)[nH]n2)CC1	–	0.79
COc1cccc(CCC2CCCN(C(=O)c3cccc4nccnc34)C2)c1 (stereo unspecified)	0.771	–
